Laboratory results taken from US20190359722A1 (TOYO UNIVERSITY, published 2019).
No constants are given. Whether binding was seen depends on the method and setting. Some binding calls cover weakened binding; strength is not graded here.

Amino acid sequences for entries named in this document (tags omitted). A change or cut given only in a name is not applied to a line headed by its entry.
UniProt P29317: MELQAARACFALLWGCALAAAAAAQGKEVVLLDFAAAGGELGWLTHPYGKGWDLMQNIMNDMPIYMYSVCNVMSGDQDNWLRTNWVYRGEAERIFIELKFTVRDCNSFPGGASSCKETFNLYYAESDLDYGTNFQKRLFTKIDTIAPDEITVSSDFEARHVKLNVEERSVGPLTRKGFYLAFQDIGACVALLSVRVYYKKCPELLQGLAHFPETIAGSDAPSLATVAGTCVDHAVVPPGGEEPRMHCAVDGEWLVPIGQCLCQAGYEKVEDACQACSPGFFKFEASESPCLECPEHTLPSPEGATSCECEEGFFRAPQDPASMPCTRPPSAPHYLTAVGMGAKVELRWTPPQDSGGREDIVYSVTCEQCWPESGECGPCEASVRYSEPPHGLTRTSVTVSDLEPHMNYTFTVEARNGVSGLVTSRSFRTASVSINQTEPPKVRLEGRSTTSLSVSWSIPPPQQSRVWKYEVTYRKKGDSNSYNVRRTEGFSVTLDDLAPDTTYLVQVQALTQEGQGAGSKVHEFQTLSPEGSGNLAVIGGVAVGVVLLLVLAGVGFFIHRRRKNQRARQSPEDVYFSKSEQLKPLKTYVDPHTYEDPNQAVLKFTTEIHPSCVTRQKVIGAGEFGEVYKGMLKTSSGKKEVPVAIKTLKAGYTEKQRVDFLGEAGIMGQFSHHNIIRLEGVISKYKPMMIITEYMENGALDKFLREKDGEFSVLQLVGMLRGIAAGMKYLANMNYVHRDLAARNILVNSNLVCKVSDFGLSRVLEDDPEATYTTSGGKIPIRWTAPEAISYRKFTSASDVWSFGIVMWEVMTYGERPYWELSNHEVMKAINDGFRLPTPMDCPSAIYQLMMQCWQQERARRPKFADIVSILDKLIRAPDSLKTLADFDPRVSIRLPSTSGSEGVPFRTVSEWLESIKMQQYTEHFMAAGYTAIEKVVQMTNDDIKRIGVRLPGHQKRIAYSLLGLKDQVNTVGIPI

How the values were obtained:
[1] = target: human recombinant EphA2-(x6 His) purchased from R & D (human) (UniProt P29317); experiment: sandwich ELISA with 57-1 and 230-1 as capture and biotin-labeled detection antibodies
[2] = target: human recombinant EphA2-(x6 His) purchased from R & D (human) (UniProt P29317); experiment: sandwich ELISA, monoclonal as capture, biotin-labeled anti-EPHA2 polyclonal antibody (R & D BAF3035) as detection
[3] = target: human recombinant EphA2-(x6 His) purchased from R & D (human) (UniProt P29317); experiment: sandwich ELISA, capture 230-1, detection biotin-labeled 57-1, specificity test
[4] = target: human recombinant EphA2-(x6 His) purchased from R & D (human) (UniProt P29317); experiment: optimized sandwich ELISA, 57-1 and 230-1 in both orientations
[5] = target: human recombinant EphA2-(x6 His) purchased from R & D (human) (UniProt P29317); experiment: sandwich ELISA, capture 57-1, detection biotin-labeled 230-1

Measured: binding

B1: mouse anti-EPHA2 monoclonal antibody 230-1 (antibody, V domains shown)
VH: EVQLVESGGGLVKPGGSLKLSCEASGFTFSDYYMYWVRQTPEKRLEWVATISDDGSFTHYLDSVKGRFTISRDNAQNNLYLQMSSLKSDDTAMYYCARDGYRYDRPFAYWGQGTLVTVSA
VL: DIVMTQSHKFMSTSVGDRVRITCKASQDVNTAVAWYQQKPGQSPKLLIYWASTRHTGVPDRFTGSGSGTDYSLTISSVQAEDLALYYCQQHYSTPYTFGGGTKLEIKR
notes: The variable regions were found by 5'-RACE; Used unlabeled as capture antibody and biotin-labeled as detection antibody; also called biotin-labeled antibody 230-1
binds: all assays above

B2: mouse anti-EPHA2 monoclonal antibody 57-1 (antibody, V domains shown)
VH: QIQLVQSGPELKKPGETVKISCKGSGYTFTNYGMNWVKQAPGKGLKWMAWINTDTGEPIFVEEFKGRFAFSLETSASTAYLQINNLTNEDTATYFCARSMGGFANWGQGTLVTVSA
VL: DIVMTQSPATLSVTPGDRVSLSCRASQNISDYLHWYQQKSHESPRLLIKYASQSISGIPSRFSGSGSGSDFTLTINSVEPEDVAMYYCQNGHTFPTFGAGTKLELKR
notes: The variable regions were found by 5'-RACE; Used unlabeled as capture antibody and biotin-labeled as detection antibody; also called biotin-labeled antibody 57-1
binds: all assays above
